# Assay results reported in the supplement of paper PMC12823440, “Inhibitors supercharge kinase turnover through native proteolytic circuits” (Nature, 2025).
# Protein sequences, listed by entry. Tags and fused reporters are not part of them. Lines headed by an entry give the natural chain unless they say otherwise; changes in a name come on top.
# UniProt P00519, whole entry: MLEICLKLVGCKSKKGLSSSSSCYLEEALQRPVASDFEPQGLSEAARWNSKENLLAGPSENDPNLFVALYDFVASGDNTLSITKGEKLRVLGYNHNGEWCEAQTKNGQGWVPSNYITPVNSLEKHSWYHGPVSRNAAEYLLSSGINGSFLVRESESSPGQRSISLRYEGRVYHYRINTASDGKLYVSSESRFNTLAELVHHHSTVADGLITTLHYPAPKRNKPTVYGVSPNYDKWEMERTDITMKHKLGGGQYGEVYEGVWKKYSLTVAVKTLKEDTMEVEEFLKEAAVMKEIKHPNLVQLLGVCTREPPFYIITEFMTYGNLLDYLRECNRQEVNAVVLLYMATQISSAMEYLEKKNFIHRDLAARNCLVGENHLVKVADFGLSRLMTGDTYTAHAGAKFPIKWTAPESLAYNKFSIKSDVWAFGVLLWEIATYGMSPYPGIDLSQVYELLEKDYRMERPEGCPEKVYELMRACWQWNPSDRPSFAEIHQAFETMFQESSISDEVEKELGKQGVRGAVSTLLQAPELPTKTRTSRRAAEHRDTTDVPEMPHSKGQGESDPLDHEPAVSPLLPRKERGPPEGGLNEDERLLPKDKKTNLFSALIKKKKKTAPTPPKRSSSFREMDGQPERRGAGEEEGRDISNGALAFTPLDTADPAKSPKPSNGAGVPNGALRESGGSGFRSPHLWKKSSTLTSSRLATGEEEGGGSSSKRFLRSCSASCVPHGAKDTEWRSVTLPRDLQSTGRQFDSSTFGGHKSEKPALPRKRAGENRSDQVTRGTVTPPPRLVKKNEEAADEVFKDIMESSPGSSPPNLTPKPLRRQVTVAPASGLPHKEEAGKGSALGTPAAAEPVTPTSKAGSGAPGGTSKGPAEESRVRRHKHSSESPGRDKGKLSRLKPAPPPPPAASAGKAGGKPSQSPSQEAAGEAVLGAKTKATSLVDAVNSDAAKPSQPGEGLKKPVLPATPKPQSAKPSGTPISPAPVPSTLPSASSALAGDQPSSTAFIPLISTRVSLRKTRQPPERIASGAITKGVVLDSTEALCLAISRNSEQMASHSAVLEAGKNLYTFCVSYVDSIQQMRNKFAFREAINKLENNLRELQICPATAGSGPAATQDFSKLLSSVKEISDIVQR
# UniProt P31749: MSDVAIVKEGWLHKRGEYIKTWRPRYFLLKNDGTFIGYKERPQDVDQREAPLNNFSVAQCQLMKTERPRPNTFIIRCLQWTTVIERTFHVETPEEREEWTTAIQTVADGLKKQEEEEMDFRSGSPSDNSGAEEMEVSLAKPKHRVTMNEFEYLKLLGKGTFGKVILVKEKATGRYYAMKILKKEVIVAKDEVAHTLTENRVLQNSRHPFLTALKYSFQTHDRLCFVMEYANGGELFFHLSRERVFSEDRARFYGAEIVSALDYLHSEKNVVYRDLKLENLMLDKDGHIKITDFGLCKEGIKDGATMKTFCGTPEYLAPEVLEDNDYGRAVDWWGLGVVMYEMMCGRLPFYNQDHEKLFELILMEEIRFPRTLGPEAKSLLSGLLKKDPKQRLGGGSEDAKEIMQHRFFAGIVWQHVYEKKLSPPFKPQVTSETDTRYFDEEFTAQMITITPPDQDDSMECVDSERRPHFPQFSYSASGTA
# UniProt P10398: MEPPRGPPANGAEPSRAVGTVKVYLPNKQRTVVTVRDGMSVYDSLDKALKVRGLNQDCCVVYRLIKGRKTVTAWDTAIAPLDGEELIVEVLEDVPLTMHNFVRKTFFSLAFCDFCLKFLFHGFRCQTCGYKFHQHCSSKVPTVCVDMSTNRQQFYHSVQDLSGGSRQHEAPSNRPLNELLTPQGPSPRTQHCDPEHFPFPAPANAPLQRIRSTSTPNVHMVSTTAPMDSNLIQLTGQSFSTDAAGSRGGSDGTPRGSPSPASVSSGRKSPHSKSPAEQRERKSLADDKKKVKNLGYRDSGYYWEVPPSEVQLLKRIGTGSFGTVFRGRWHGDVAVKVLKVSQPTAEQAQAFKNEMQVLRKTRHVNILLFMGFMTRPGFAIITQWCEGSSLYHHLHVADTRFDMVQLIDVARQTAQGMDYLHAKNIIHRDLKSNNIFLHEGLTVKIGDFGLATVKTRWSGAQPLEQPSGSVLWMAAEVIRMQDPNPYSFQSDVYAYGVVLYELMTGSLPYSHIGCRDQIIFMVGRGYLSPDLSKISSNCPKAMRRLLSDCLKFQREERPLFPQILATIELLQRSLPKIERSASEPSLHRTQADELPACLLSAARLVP
# UniProt O14965: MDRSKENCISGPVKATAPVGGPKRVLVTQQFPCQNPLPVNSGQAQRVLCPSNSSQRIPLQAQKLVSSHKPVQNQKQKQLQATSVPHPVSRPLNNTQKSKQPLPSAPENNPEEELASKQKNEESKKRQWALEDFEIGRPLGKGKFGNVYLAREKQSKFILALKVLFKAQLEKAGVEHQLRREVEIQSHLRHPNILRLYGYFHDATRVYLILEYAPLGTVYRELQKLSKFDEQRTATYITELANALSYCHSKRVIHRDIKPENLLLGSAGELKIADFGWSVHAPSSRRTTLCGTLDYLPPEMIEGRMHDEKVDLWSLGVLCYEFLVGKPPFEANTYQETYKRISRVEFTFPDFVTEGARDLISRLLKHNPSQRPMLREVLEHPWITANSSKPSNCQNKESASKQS
# UniProt Q96GD4, whole entry: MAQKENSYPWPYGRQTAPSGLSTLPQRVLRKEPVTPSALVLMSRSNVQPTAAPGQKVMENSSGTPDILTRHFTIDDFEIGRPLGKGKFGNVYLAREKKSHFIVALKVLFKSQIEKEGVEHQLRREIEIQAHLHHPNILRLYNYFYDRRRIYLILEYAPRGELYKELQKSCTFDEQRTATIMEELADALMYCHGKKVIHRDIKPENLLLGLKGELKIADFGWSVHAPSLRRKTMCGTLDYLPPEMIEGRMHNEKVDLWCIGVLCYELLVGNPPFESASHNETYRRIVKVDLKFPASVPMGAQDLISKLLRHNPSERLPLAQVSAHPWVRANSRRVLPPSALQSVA
# UniProt Q9UQB9: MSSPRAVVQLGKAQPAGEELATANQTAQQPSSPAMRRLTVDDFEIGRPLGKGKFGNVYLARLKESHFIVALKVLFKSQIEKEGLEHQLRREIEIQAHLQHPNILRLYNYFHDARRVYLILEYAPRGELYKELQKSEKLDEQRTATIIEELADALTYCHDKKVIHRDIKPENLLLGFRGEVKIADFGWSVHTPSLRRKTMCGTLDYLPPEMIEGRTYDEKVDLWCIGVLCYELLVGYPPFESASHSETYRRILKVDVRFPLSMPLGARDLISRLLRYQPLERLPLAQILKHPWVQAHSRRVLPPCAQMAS
# UniProt P51813: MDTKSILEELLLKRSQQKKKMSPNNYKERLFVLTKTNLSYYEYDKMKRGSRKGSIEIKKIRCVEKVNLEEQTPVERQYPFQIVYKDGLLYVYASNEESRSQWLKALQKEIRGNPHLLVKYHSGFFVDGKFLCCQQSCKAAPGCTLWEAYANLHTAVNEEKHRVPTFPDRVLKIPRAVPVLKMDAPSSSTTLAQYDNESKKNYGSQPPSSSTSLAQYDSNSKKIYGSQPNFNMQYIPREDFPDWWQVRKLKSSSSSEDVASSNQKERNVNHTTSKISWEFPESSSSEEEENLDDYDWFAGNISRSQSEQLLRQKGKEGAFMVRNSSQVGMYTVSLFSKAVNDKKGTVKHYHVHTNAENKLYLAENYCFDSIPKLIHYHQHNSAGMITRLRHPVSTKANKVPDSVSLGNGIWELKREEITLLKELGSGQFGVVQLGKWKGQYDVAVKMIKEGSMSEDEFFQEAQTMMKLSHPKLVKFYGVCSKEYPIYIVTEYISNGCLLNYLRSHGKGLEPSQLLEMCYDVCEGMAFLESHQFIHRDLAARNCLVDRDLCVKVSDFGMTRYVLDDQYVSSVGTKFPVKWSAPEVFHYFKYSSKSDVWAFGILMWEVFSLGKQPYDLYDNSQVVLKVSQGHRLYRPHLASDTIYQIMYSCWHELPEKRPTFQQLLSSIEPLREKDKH
# UniProt Q06187: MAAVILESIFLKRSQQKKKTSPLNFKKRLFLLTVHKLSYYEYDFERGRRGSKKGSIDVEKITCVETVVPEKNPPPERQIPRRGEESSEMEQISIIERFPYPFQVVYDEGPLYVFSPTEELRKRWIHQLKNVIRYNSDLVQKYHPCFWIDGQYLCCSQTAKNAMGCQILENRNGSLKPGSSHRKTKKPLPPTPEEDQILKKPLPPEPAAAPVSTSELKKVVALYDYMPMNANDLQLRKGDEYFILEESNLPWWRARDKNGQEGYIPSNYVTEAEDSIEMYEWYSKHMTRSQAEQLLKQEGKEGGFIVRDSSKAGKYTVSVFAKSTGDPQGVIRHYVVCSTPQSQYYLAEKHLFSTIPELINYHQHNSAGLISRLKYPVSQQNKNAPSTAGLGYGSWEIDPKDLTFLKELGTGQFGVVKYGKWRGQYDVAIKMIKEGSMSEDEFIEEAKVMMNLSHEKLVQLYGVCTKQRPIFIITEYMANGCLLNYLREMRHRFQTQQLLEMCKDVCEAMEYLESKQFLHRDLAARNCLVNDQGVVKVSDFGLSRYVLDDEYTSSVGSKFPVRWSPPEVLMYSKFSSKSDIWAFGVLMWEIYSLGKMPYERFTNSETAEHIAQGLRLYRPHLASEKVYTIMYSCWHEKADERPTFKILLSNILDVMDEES
# UniProt Q9UQM7, whole entry: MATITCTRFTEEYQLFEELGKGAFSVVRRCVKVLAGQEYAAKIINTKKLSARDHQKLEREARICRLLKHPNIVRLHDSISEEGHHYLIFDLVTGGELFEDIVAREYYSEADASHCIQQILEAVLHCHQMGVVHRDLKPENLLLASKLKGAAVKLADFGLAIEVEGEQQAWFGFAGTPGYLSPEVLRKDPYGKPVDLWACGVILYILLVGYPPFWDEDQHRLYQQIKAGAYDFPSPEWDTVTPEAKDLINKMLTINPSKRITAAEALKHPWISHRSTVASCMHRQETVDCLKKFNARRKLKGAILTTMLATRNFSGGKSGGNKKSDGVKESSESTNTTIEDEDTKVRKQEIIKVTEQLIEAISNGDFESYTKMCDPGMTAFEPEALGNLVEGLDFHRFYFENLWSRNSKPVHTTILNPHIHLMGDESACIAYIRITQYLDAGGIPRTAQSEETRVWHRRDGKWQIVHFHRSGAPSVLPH
# UniProt Q13555: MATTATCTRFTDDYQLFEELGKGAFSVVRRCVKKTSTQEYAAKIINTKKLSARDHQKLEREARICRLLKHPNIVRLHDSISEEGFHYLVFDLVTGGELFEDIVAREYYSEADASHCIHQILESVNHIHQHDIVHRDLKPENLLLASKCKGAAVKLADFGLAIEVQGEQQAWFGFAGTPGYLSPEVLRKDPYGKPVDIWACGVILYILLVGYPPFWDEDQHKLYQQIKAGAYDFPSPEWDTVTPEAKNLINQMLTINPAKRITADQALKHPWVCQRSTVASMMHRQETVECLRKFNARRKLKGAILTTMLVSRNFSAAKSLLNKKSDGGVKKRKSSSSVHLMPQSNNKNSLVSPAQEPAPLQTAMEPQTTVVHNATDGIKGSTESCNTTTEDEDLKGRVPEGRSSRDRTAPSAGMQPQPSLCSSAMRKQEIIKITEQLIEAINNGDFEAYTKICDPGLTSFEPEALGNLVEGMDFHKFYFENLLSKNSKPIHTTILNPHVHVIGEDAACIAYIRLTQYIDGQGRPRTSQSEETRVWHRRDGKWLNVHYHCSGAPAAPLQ
# UniProt P11802: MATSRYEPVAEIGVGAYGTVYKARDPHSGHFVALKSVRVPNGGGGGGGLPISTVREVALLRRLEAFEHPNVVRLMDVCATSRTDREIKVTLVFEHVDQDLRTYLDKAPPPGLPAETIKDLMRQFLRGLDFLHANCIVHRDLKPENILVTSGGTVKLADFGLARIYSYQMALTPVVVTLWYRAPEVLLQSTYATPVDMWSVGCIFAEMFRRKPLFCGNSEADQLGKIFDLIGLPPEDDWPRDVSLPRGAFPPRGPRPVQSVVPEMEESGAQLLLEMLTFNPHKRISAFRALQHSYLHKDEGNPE
# UniProt Q00535, whole entry, looked up: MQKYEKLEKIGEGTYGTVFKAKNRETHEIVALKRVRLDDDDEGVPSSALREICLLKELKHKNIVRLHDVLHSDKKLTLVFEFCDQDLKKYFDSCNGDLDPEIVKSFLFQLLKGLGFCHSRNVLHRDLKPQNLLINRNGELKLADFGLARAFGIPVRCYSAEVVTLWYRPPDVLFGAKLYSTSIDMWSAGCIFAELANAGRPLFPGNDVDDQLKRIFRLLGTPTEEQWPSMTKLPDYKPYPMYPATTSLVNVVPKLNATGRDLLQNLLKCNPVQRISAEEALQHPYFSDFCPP
# UniProt Q00534, whole entry: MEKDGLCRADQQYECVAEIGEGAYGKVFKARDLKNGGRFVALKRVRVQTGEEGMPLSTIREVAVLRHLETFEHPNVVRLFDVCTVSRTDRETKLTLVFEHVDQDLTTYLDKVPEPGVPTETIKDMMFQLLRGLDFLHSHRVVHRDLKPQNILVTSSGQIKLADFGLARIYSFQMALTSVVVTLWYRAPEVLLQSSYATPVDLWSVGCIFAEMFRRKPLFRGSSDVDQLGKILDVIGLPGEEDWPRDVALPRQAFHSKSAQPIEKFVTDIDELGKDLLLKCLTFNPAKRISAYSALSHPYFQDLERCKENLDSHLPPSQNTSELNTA
# Counter-ions that a name gives are not always drawn. The list shows a part of the results. The calls rarely recur for the same compound in another form.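 Kinases, fused to nanoluciferase, were expressed in K562 cells; luminescence was measured every 4 h from 2 to 18 h as percent of control (DMSO = 100%, positive control = 0%). A time point is decreased if signal falls significantly (2 sigma). Hits were called by the authors by a rule that is not shown; the count of time points alone does not decide it.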
# Tests used:
# Assay in all cases: kinase-Nluc reporter destabilization hit call (1 = scored as downregulated) (binary); higher = compound decreases kinase abundance
# Conditions in all cases: K562; 2-18 h
# ABL1 = ABL1 (UniProt P00519)
# AKT1 = AKT1 (UniProt P31749)
# ALK = ALK (UniProt Q9UM73)
# ARAF = ARAF (UniProt P10398)
# AURKA = AURKA (UniProt O14965)
# AURKB = AURKB (UniProt Q96GD4)
# AURKC = AURKC (UniProt Q9UQB9)
# BLK = BLK (UniProt P51451)
# BMX = BMX (UniProt P51813)
# BRAF = BRAF (UniProt P15056)
# BRAF_V600E = tested on: BRAF_V600E
# BTK = BTK (UniProt Q06187)
# CAMK2A = CAMK2A (UniProt Q9UQM7)
# CAMK2G = CAMK2G (UniProt Q13555)
# CDK10 = CDK10 (UniProt Q15131)
# CDK2 = CDK2 (UniProt P24941)
# CDK3 = CDK3 (UniProt Q00526)
# CDK4 = CDK4 (UniProt P11802)
# CDK5 = CDK5 (UniProt Q00535)
# CDK6 = CDK6 (UniProt Q00534)
Structure (SMILES),kinase-Nluc reporter destabilization hit call (ABL1),kinase-Nluc reporter destabilization hit call (AKT1),kinase-Nluc reporter destabilization hit call (ALK),kinase-Nluc reporter destabilization hit call (ARAF),kinase-Nluc reporter destabilization hit call (AURKA),kinase-Nluc reporter destabilization hit call (AURKB),kinase-Nluc reporter destabilization hit call (AURKC),kinase-Nluc reporter destabilization hit call (BLK),kinase-Nluc reporter destabilization hit call (BMX),kinase-Nluc reporter destabilization hit call (BRAF),kinase-Nluc reporter destabilization hit call (BRAF_V600E),kinase-Nluc reporter destabilization hit call (BTK),kinase-Nluc reporter destabilization hit call (CAMK2A),kinase-Nluc reporter destabilization hit call (CAMK2G),kinase-Nluc reporter destabilization hit call (CDK10),kinase-Nluc reporter destabilization hit call (CDK2),kinase-Nluc reporter destabilization hit call (CDK3),kinase-Nluc reporter destabilization hit call (CDK4),kinase-Nluc reporter destabilization hit call (CDK5),kinase-Nluc reporter destabilization hit call (CDK6)
C=CC(=O)Nc1ccc(CN2C(=O)N(c3cc(OC)cc(OC)c3)Cc3cnc(Nc4ccc(N5CCN(C)CC5)cc4)nc32)cc1 (2.5 µM),inactive: 0,inactive: 0,inactive: 0,inactive: 0,inactive: 0,inactive: 0,inactive: 0,active: 1,inactive: 0,inactive: 0,inactive: 0,inactive: 0,inactive: 0,inactive: 0,inactive: 0,inactive: 0,inactive: 0,inactive: 0,inactive: 0,inactive: 0
Cc1nc2sccn2c(=O)c1CCN1CCC(=C(c2ccccc2)c2ccc(F)cc2)CC1 (10 µM),inactive: 0,inactive: 0,inactive: 0,inactive: 0,inactive: 0,inactive: 0,inactive: 0,inactive: 0,inactive: 0,inactive: 0,inactive: 0,inactive: 0,inactive: 0,inactive: 0,inactive: 0,inactive: 0,inactive: 0,inactive: 0,inactive: 0,inactive: 0
COc1ccc2c(OCc3nnc4ccc(-c5ccccc5)nn34)ccnc2c1 (2 µM),inactive: 0,inactive: 0,inactive: 0,inactive: 0,inactive: 0,inactive: 0,inactive: 0,inactive: 0,inactive: 0,inactive: 0,inactive: 0,inactive: 0,inactive: 0,inactive: 0,inactive: 0,inactive: 0,inactive: 0,inactive: 0,inactive: 0,inactive: 0
NCCNS(=O)(=O)c1cccc2c(Cl)cccc12 [A-3 (hydrochloride)] (10 µM),inactive: 0,inactive: 0,inactive: 0,inactive: 0,inactive: 0,inactive: 0,inactive: 0,inactive: 0,inactive: 0,inactive: 0,inactive: 0,inactive: 0,inactive: 0,inactive: 0,inactive: 0,inactive: 0,inactive: 0,inactive: 0,inactive: 0,inactive: 0
CC(=O)c1c(C)cc2cccc(O)c2c1O [Nepodin] (10 µM),inactive: 0,inactive: 0,inactive: 0,inactive: 0,inactive: 0,inactive: 0,inactive: 0,inactive: 0,inactive: 0,inactive: 0,inactive: 0,inactive: 0,inactive: 0,inactive: 0,inactive: 0,inactive: 0,inactive: 0,inactive: 0,inactive: 0,inactive: 0
Cc1c(NC(=O)c2cccn(-c3ccc(F)cc3)c2=O)ccc(Oc2ccnc(NC(=O)C3CC3)c2)c1C (2 µM),inactive: 0,inactive: 0,inactive: 0,inactive: 0,inactive: 0,inactive: 0,inactive: 0,inactive: 0,inactive: 0,inactive: 0,inactive: 0,inactive: 0,inactive: 0,inactive: 0,inactive: 0,inactive: 0,inactive: 0,inactive: 0,inactive: 0,inactive: 0
COc1cc(Nc2ncc(F)c(Nc3ccc4c(n3)NC(=O)C(C)(C)O4)n2)cc(OC)c1OC (10 µM),inactive: 0,inactive: 0,inactive: 0,inactive: 0,–,inactive: 0,inactive: 0,inactive: 0,–,inactive: 0,inactive: 0,inactive: 0,inactive: 0,inactive: 0,inactive: 0,active: 1,inactive: 0,inactive: 0,inactive: 0,inactive: 0
CS(=O)(=O)Nc1cc(-c2ccc3ncnc(Nc4ccc(F)c(Cl)c4)c3c2)cnc1Cl (2.5 µM),inactive: 0,inactive: 0,inactive: 0,inactive: 0,inactive: 0,inactive: 0,inactive: 0,inactive: 0,inactive: 0,inactive: 0,inactive: 0,inactive: 0,inactive: 0,inactive: 0,inactive: 0,inactive: 0,inactive: 0,inactive: 0,inactive: 0,inactive: 0
C=CC(=O)Nc1cccc(Nc2nc(Nc3ccc(N4CCN(C(C)=O)CC4)cc3OC)ncc2C(F)(F)F)c1 [Rociletinib hydrobromide] (10 µM),inactive: 0,inactive: 0,–,inactive: 0,inactive: 0,inactive: 0,inactive: 0,inactive: 0,inactive: 0,–,inactive: 0,inactive: 0,inactive: 0,inactive: 0,inactive: 0,inactive: 0,inactive: 0,inactive: 0,inactive: 0,inactive: 0
COc1cc2c(N3CCN(C(=O)Nc4ccc(OC(C)C)cc4)CC3)ncnc2cc1OCCCN1CCCCC1 [Tandutinib] (10 µM),inactive: 0,inactive: 0,inactive: 0,inactive: 0,inactive: 0,inactive: 0,inactive: 0,inactive: 0,inactive: 0,–,inactive: 0,inactive: 0,inactive: 0,inactive: 0,inactive: 0,inactive: 0,inactive: 0,inactive: 0,inactive: 0,inactive: 0
COc1cc(Nc2ncc(F)c(Nc3ccc4c(n3)N(COP(=O)(O)O)C(=O)C(C)(C)O4)n2)cc(OC)c1OC [Fostamatinib Disodium] (10 µM),inactive: 0,inactive: 0,inactive: 0,inactive: 0,inactive: 0,–,inactive: 0,inactive: 0,inactive: 0,inactive: 0,inactive: 0,inactive: 0,inactive: 0,inactive: 0,inactive: 0,inactive: 0,inactive: 0,inactive: 0,inactive: 0,inactive: 0

# Record cards, as listed above. Order of values: kinase-Nluc reporter destabilization hit call (ABL1) | kinase-Nluc reporter destabilization hit call (AKT1) | kinase-Nluc reporter destabilization hit call (ALK) | kinase-Nluc reporter destabilization hit call (ARAF) | kinase-Nluc reporter destabilization hit call (AURKA) | kinase-Nluc reporter destabilization hit call (AURKB) | kinase-Nluc reporter destabilization hit call (AURKC) | kinase-Nluc reporter destabilization hit call (BLK) | kinase-Nluc reporter destabilization hit call (BMX) | kinase-Nluc reporter destabilization hit call (BRAF) | kinase-Nluc reporter destabilization hit call (BRAF_V600E) | kinase-Nluc reporter destabilization hit call (BTK) | kinase-Nluc reporter destabilization hit call (CAMK2A) | kinase-Nluc reporter destabilization hit call (CAMK2G) | kinase-Nluc reporter destabilization hit call (CDK10) | kinase-Nluc reporter destabilization hit call (CDK2) | kinase-Nluc reporter destabilization hit call (CDK3) | kinase-Nluc reporter destabilization hit call (CDK4) | kinase-Nluc reporter destabilization hit call (CDK5) | kinase-Nluc reporter destabilization hit call (CDK6)
# CS(=O)(=O)Nc1cc(-c2ccc3ncnc(Nc4ccc(F)c(Cl)c4)c3c2)cnc1Cl (2.5 µM) is entered as inactive: 0 | inactive: 0 | inactive: 0 | inactive: 0 | inactive: 0 | inactive: 0 | inactive: 0 | inactive: 0 | inactive: 0 | inactive: 0 | inactive: 0 | inactive: 0 | inactive: 0 | inactive: 0 | inactive: 0 | inactive: 0 | inactive: 0 | inactive: 0 | inactive: 0 | inactive: 0
# NCCNS(=O)(=O)c1cccc2c(Cl)cccc12 [A-3 (hydrochloride)] (10 µM) is entered as inactive: 0 | inactive: 0 | inactive: 0 | inactive: 0 | inactive: 0 | inactive: 0 | inactive: 0 | inactive: 0 | inactive: 0 | inactive: 0 | inactive: 0 | inactive: 0 | inactive: 0 | inactive: 0 | inactive: 0 | inactive: 0 | inactive: 0 | inactive: 0 | inactive: 0 | inactive: 0
